The other results are listed elsewhere or left out. Small differences around the control level are noise.

Sequences of proteins named here, by UniProt entry; tags and fusion partners are left off. A change or cut given only in a name is not applied to a line headed by its entry.
UniProt P27540, whole entry: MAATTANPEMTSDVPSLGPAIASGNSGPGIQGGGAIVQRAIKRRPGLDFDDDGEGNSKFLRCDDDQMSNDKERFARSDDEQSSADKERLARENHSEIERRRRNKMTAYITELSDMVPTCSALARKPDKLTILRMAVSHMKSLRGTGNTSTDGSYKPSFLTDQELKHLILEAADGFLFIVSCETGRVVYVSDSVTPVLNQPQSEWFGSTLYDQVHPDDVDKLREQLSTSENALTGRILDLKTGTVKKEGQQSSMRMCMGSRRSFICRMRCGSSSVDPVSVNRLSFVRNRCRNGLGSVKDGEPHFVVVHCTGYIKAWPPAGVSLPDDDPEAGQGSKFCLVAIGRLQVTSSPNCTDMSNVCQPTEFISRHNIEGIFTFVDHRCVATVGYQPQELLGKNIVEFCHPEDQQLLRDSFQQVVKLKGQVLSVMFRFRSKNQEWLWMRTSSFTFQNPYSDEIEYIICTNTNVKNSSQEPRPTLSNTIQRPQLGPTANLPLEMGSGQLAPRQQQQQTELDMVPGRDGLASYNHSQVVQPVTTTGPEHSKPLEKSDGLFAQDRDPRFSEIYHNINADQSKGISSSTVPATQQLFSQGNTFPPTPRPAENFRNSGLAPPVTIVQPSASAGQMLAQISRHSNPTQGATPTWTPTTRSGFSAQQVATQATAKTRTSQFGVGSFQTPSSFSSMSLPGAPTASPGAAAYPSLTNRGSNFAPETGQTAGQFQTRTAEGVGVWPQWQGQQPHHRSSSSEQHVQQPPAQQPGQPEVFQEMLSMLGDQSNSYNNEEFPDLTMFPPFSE
UniProt P20226, whole entry: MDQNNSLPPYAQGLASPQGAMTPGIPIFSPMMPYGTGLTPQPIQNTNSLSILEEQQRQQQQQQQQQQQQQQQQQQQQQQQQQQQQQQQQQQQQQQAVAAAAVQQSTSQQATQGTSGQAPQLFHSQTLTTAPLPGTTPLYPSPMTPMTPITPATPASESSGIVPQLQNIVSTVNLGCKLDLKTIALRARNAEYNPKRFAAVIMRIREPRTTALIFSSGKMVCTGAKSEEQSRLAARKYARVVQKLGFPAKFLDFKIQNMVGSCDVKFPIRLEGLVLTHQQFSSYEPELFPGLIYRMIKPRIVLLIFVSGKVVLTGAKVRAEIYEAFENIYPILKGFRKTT
UniProt P23921: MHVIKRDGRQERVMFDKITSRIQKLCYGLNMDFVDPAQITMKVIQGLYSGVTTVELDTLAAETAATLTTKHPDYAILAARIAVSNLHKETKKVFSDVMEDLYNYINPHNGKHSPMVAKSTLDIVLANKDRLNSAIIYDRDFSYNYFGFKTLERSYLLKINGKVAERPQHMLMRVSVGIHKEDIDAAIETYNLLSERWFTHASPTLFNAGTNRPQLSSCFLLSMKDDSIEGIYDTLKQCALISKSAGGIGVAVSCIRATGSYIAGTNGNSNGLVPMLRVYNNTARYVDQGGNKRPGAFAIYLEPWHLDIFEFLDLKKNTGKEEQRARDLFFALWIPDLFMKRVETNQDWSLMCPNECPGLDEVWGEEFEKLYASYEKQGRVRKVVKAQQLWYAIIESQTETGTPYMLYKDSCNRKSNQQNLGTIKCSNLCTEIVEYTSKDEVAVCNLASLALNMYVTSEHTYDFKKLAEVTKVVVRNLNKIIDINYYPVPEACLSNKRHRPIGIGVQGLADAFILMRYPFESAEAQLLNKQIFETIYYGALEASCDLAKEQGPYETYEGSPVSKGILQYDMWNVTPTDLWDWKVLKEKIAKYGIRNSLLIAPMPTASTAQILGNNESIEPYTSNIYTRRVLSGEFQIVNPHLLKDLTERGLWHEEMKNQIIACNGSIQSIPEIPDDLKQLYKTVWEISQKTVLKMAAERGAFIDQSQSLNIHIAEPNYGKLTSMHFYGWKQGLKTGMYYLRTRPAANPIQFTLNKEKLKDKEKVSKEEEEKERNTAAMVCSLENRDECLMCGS
UniProt P18887, whole entry: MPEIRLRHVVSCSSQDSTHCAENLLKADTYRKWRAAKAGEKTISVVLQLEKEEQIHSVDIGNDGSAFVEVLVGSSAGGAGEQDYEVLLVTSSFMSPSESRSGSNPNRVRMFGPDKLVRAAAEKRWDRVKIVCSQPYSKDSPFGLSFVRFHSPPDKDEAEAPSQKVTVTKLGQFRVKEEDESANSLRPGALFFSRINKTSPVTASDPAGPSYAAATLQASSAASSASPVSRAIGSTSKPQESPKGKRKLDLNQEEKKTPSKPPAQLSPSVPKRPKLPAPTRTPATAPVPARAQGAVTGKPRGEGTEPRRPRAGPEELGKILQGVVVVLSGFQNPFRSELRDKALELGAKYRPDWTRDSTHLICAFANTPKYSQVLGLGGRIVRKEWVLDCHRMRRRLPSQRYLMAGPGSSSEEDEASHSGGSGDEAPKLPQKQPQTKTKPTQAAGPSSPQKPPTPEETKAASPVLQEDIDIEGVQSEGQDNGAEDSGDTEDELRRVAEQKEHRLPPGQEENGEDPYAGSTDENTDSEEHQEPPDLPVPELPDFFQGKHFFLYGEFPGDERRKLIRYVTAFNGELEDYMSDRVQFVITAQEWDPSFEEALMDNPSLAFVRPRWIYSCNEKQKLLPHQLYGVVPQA
UniProt P15498: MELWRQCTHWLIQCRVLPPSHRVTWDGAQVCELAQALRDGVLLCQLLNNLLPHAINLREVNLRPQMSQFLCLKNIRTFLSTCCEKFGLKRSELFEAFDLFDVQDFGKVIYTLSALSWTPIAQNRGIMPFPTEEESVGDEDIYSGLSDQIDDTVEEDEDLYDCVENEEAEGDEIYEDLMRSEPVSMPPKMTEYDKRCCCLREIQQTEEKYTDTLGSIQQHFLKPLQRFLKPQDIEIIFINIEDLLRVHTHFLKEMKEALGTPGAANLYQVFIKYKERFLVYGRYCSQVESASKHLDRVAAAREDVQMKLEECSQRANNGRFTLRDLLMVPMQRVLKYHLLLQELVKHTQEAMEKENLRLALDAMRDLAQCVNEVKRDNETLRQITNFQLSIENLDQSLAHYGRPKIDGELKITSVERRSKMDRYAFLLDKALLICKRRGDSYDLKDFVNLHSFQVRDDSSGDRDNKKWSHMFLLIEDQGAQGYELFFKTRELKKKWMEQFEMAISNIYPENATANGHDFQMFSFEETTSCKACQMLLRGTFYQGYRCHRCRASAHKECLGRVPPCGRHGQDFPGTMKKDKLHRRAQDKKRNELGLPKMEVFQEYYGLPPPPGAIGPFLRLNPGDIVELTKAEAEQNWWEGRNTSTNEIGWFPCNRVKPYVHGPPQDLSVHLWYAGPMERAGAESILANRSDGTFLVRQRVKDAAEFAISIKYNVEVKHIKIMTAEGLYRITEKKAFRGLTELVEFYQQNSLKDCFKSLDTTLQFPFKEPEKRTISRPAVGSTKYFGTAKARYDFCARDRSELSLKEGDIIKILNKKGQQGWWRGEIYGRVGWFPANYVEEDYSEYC
UniProt P23025: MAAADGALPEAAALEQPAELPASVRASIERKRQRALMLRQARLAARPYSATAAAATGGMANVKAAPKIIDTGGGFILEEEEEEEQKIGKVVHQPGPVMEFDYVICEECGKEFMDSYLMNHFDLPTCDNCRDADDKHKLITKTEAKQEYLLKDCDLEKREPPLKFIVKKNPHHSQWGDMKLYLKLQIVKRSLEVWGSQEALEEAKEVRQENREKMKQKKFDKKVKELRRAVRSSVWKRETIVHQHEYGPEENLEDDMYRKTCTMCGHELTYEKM
UniProt P23588, whole entry: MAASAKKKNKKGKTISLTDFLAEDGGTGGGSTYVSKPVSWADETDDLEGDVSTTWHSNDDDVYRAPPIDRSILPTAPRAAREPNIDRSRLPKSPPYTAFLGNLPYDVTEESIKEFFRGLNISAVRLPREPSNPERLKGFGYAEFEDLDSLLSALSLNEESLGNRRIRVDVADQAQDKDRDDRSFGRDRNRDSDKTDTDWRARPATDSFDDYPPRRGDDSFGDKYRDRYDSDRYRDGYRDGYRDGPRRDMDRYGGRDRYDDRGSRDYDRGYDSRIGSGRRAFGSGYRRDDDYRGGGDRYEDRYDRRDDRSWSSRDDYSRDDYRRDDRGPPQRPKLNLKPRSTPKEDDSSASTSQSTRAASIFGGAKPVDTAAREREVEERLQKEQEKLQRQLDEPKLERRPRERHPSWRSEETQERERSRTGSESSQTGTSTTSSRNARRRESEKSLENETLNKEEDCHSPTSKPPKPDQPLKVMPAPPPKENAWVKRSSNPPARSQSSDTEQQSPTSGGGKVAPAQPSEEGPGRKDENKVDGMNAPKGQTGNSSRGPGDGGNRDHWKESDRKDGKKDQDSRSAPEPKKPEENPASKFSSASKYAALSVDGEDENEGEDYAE
UniProt P20042, whole entry: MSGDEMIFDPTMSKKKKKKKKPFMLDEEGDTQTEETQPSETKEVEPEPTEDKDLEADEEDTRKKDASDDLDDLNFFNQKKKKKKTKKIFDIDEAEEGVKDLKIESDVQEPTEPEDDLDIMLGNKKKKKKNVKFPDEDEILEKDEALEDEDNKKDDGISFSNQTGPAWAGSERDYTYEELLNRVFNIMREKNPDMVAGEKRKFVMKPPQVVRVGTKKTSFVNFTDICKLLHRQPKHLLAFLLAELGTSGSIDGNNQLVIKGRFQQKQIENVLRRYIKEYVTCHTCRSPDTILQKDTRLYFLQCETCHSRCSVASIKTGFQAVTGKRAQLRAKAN
UniProt P19105: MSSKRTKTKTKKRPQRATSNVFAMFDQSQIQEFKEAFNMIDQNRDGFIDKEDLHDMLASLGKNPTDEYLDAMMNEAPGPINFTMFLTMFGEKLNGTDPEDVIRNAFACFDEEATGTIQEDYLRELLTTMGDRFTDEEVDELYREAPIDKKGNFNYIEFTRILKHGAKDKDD
UniProt P22234: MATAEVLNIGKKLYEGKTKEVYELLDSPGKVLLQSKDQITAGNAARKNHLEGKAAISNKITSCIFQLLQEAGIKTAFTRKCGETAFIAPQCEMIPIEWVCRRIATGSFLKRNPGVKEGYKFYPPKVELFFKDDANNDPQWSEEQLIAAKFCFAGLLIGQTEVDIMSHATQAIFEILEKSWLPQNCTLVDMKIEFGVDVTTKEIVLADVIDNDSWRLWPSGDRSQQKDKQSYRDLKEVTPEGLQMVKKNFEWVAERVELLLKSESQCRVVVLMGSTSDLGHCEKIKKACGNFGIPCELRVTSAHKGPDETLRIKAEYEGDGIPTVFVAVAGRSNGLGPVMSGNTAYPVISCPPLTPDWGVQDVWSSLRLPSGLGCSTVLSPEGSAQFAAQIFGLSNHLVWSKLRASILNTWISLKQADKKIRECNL
UniProt P23258, whole entry: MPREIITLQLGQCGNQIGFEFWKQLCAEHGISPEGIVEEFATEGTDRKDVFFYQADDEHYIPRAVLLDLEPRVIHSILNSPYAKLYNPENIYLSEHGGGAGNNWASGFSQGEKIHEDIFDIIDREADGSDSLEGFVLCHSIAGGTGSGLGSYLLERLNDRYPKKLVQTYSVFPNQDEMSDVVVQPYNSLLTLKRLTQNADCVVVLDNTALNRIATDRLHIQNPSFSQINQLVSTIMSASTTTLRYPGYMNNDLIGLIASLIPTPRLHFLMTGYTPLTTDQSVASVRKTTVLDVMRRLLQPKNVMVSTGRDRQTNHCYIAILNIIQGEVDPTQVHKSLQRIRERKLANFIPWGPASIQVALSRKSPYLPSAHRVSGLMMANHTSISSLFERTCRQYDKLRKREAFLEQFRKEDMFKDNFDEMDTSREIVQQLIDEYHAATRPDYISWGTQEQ
UniProt P18031: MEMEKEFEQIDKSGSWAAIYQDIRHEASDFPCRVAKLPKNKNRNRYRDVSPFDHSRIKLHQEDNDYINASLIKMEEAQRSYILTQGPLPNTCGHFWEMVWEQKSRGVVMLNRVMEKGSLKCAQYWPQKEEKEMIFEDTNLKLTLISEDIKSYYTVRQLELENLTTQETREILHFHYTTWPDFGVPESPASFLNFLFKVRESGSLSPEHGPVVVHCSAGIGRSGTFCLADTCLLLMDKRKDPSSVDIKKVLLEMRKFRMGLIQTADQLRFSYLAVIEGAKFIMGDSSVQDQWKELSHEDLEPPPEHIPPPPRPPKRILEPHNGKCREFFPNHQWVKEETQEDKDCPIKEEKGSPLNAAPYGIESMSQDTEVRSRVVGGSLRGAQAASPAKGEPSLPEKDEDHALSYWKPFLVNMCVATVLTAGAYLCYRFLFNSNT
UniProt P20333, whole entry: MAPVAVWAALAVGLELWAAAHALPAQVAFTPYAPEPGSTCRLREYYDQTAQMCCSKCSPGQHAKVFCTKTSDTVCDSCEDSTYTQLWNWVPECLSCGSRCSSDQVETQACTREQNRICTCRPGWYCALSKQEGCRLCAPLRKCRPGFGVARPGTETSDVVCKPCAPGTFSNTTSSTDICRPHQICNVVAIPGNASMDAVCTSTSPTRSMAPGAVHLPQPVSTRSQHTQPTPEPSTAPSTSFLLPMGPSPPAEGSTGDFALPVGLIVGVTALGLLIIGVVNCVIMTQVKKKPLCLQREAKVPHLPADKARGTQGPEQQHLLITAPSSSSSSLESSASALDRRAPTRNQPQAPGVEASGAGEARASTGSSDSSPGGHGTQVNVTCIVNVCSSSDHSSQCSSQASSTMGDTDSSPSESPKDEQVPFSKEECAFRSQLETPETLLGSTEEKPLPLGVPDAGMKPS

Compound in the assay: CN[C@@H]1C[C@H]2O[C@@](C)([C@@H]1OC)n1c3ccccc3c3c4c(c5c6ccccc6n2c5c31)C(=O)NC4 [staurosporine]
The experiment in a line: log2 fold change of tryptic peptide abundance, ligand vs vehicle (limited proteolysis) (log2 ratio); higher = more trypsin-susceptible (destabilized). The settings on record: ligand concentration: 20 uM; sample: K562 cleared lysate; digestion: 4 min, 22 C (HT-PELSA RT4min, Orbitrap Astral).
As to “ARNT (peptide sequence: QQQQQTELDMVPGR, peptide start residue: 503) (UniProt P27540)”, the log2 fold change was -0.344.
The same measure for “TBP (peptide sequence: AEIYEAFENIYPILK, peptide start residue: 319) (UniProt P20226)”: -0.131; for “NME2 (peptide sequence: EISLWFKPEELVDYK, peptide start residue: 129) (UniProt P22392)”: -0.0741.
Regarding “DDX6 (peptide sequence: IKTSDVTSTK, peptide start residue: 85) (UniProt P26196)”, the log2 fold change was 0.347.
Regarding “TFE3 (peptide sequence: SHAAEPARDGVEASAEGPR, peptide start residue: 2) (UniProt P19532)”, the log2 fold change is 0.148.
As for “RRM1 (peptide sequence: KVFSDVMEDLYNYINPHNGK, peptide start residue: 92) (UniProt P23921)”, the figure is 0.187; as for “XRCC1 (peptide sequence: KTPSKPPAQLSPSVPK, peptide start residue: 256) (UniProt P18887)”, 0.17.
As for “UniProt P26651 (peptide sequence: RDPTPVCCPSCR, peptide start residue: 243)”, the figure is -0.318; as for “ANK1 (peptide sequence: EGHVETVLALLEKEASQACMTK, peptide start residue: 513) (UniProt P16157)”, 0.326; as for “VAV1 (peptide sequence: YHLLLQELVK, peptide start residue: 336) (UniProt P15498)”, 0.191.
The same measure for “TGM2 (peptide sequence: LAEKEETGMAMR, peptide start residue: 465) (UniProt P21980)”: -0.454.
“XPA (peptide sequence: PYSATAAAATGGMANVK, peptide start residue: 47) (UniProt P23025)”: the log2 fold change amounted to 0.356.
“EIF4B (peptide sequence: LPREPSNPER, peptide start residue: 126) (UniProt P23588)”: the log2 fold change is 0.951.
As for “EIF2S2 (peptide sequence: EKNPDMVAGEK, peptide start residue: 189) (UniProt P20042)”, the figure is 0.519; as for “ACP1 (peptide sequence: HGIPMSHVAR, peptide start residue: 67) (UniProt P24666)”, 0.195.
For “MYL12A (peptide sequence: GNFNYIEFTR, peptide start residue: 152) (UniProt P19105)”, the log2 fold change was -0.156.
The same measure for “PAICS (peptide sequence: KNFEWVAERVELLLK, peptide start residue: 247) (UniProt P22234)”: 0.61; for “UQCRC2 (peptide sequence: AVAFQNPQTHVIENLHAAAYR, peptide start residue: 163) (UniProt P22695)”: 0.318; for “TUBG1 (peptide sequence: LANFIPWGPASIQVALSR, peptide start residue: 345) (UniProt P23258)”: -0.398.
The same measure for “RAB4A (peptide sequence: MGSGIQYGDAALR, peptide start residue: 188) (UniProt P20338)”: -0.00139; for “ARF4 (peptide sequence: IQEVADELQK, peptide start residue: 100) (UniProt P18085)”: 0.414.
For the target “FAH (peptide sequence: ASSVVVSGTPIR, peptide start residue: 163) (UniProt P16930)”, the log2 fold change stood at 0.194.
As to “USF1 (peptide sequence: TENGGQVMYR, peptide start residue: 53) (UniProt P22415)”, the log2 fold change is -0.211.
“RASA1 (peptide sequence: EIYNTIR, peptide start residue: 458) (UniProt P20936)”: the log2 fold change is -0.168.
With “PTPN1 (peptide sequence: ILEPHNGK, peptide start residue: 316) (UniProt P18031)”, the log2 fold change was found to be 0.326.
As for “GADD45A (peptide sequence: YMDQWVPVINLPER, peptide start residue: 152) (UniProt P24522)”, the log2 fold change was -0.191.
As for “TNFRSF1B (peptide sequence: VPHLPADK, peptide start residue: 300) (UniProt P20333)”, the figure is -0.268; as for “GSTM3 (peptide sequence: MAQWGNKPVC, peptide start residue: 216) (UniProt P21266)”, -0.059.

The values are drawn from the supplement of paper PMC12819154, “High-throughput peptide-centric local stability assay extends protein–ligand identification to membrane proteins, tissues and bacteria” (Nature Structural & Molecular Biology, 2025).
